PubChem BioAssay AID1487 (National Center for Advancing Translational Sciences (NCATS), 2009)
The other results are listed elsewhere or left out. Shown are side measurements of this screen, not its main read-out; they come without a call. Most of these compounds were active or inconclusive in the main read-out, so they are no random draw. The note in brackets gives the kind of curve behind each potency; many fits are weak.

Assay: qHTS Assay for Modulators of Lamin A Splicing
Conditions: HeLa LMNA splicing GFP/RFP minigene ratio, 48 h
Summary of the method: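 Read-out is the ratio of GFP to DsRed2 object intensity, acquired by 488 nm laser-scanning cytometry on HeLa lamin A-EGFP minigene reporter cells. Compound incubation 48 hrs at 37 °C in Opti-MEM with 2% FBS; DMSO 0.5% final.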

[1] = measured here: GFP splicing reporter channel
[2] = measured here: RFP viability control channel

SMILES	AC50 [1]	AC50 [2]
CCc1ccccc1NS(=O)(=O)c1ccc2c(c1)CCCN2C(=O)C1CCC1	1.41 µM [falling, full curve]	5.01 µM [falling, partial curve, poor fit]
Cc1nn2c(=O)cc(COC(=O)c3ccccc3NC(=O)c3cccs3)nc2s1	3.16 µM [rising, partial curve, poor fit]	–
COc1ccc(Cc2c(Cl)ncnc2Cl)cc1	–	31.6 µM [rising, single point]
Cc1cc(C)c(S(=O)(=O)N2CCCOC2CNC(=O)C(=O)NCCc2c[nH]c3ccccc23)c(C)c1 (stereo unspecified)	–	14.1 µM [rising, partial curve]
O=C(Nc1cccnc1Cl)c1cc([N+](=O)[O-])ccc1Cl	0.00355 µM [rising, full curve, poor fit]	–
C/C(O)=C\c1nc2ccccc2oc1=O	–	11.2 µM [rising, single point]
Cc1c(C(=O)N2CCN(c3ccccc3F)CC2)sc2nc(-c3ccccc3)cn12	–	12.6 µM [rising, partial curve]
Cc1ncn(-c2ccc(C(=O)Oc3ccccc3)cn2)n1	–	35.5 µM [falling, single point]
CCN1CCN(c2ccc(NC(=O)CCc3c(C)nc4c(-c5ccc(F)cc5)c(C)nn4c3C)cc2)CC1	0.794 µM [falling, full curve, poor fit]	–
CC(C)OC(=O)CSc1nnc(-c2ccc([N+](=O)[O-])cc2)o1	1.26 µM [falling, full curve, poor fit]	–
CN1CCN(Cc2c(O)ccc3cc(-c4ccc(Cl)cc4)c(=O)oc23)CC1	12.6 µM [falling, single point]	–
CN(Cc1ccccc1)c1nc(N)c([N+](=O)[O-])c(NCc2ccccc2)n1	–	14.1 µM [rising, single point]
Cc1ccccc1CSCC(=O)N1CCN(c2ccccc2)CC1	35.5 µM [rising, single point]	35.5 µM [rising, single point]
O=C(CN1CCN(c2ccccc2F)CC1)Nc1ccccc1F	0.0708 µM [rising, full curve, poor fit]	–
OC(COc1ccccc1CNCc1cccnc1)CN1CCc2ccccc2C1 (stereo unspecified)	3.16 µM [falling, full curve, poor fit]	–
Cc1ccccc1CSCCNC(=O)c1ccc(Cl)c(S(=O)(=O)N2CCOCC2)c1	35.5 µM [rising, single point]	31.6 µM [rising, single point]
O=C(NCCC1=CCCCC1)C1CCN(Cc2cnn(-c3ccccc3)c2-n2cccc2)CC1	–	12.6 µM [rising, partial curve]
N#CC1=C(N)OC2=C(C(=O)CC(c3ccccc3)C2)C1c1cccnc1 (stereo unspecified)	3.55 µM [rising, single point]	0.0501 µM [rising, full curve, poor fit]
N#Cc1c(Oc2ccc3ccccc3c2)sc(C(=O)c2ccccc2)c1N	3.16 µM [falling, single point]	–

SMILES	AC50 [1]	AC50 [2]
COc1cccc(Nc2ncc3nc(-c4cccs4)c(=O)n(Cc4cccs4)c3n2)c1	–	14.1 µM [falling, partial curve, poor fit]
C(=N/Nc1cc(N2CCOCC2)nc(N2CCOCC2)n1)/c1ccccc1	–	0.0794 µM [rising, partial curve]
COc1ccc(Nc2nc(S(=O)(=O)c3ccc(C)cc3)c(Cl)s2)cc1	–	12.6 µM [rising, partial curve, poor fit]
CC(C)(C)OC(=O)N1CCC(c2c(C(=O)Nc3ccc4c(c3)OCCO4)cnn2-c2ccc(F)cc2F)CC1	2.24 µM [falling, partial curve, poor fit]	–
CC(O)Cn1nc([N+](=O)[O-])nc1N (stereo unspecified)	–	0.0891 µM [falling, full curve, poor fit]
O=C(/C=C/c1ccc(Cl)cc1Cl)NC(=S)Nc1ccccn1	–	0.141 µM [rising, full curve, poor fit]
COc1ccc(CNC(=O)Nc2cccc(C(F)(F)F)c2)cc1OC	–	11.2 µM [rising, partial curve]
O=C(Nc1cccc(OCc2cc(=O)n3ccccc3n2)c1)c1ccccc1Br	8.91 µM [falling, partial curve, poor fit]	–
COc1ccc(NC(=O)CC2C(=O)N(C)C(=S)N2CCc2ccccc2)cc1 (stereo unspecified)	11.2 µM [rising, partial curve, poor fit]	25.1 µM [rising, single point]
O=C(NCCc1cccc(Cl)c1)c1cc([N+](=O)[O-])ccc1Cl	–	20 µM [rising, single point]
COc1ccccc1CCNC(=O)C(=O)NCC(c1ccco1)S(=O)(=O)c1ccc(F)cc1 (stereo unspecified)	11.2 µM [falling, single point]	12.6 µM [falling, single point]
Cc1ccc(Cl)cc1N1CCN(C(=O)c2ccc(NS(=O)(=O)c3c(C)noc3C)cc2)CC1	–	11.2 µM [rising, partial curve]
CC(=O)N1CCc2cc(Br)cc(S(=O)(=O)N3CCCCCC3)c21	31.6 µM [rising, single point]	–
O=C(N/N=C/c1c[nH]c2ccccc12)C1COc2ccccc2O1 (stereo unspecified)	–	5.01 µM [rising, full curve]
CCOC(=O)N1C(=O)C2(CCCCC2)N(c2ccccc2Cl)C1=S	–	15.8 µM [rising, single point]
CCCn1nc(C(=O)N2CCc3ccccc3C2)c2ccccc2c1=O	11.2 µM [rising, partial curve]	15.8 µM [rising, single point]
Cc1ccc(-c2cc(-c3ccccc3C)[nH]n2)c(O)c1	–	0.562 µM [rising, single point]
COCCn1c(SCC(=O)Nc2ccc(S(=O)(=O)N3CCOCC3)cc2)nc2ccccc21	–	12.6 µM [rising, partial curve]
CCSc1ccc(C(=O)Nc2ccc(-c3nc4ccc(C)cc4s3)cc2)cc1	0.447 µM [rising, full curve, poor fit]	0.447 µM [rising, partial curve, poor fit]

An excerpt of these results, bar-delimited:
SMILES | AC50 [1] | AC50 [2]
O=C(/C=C/c1ccc(Cl)cc1Cl)NC(=S)Nc1ccccn1 | – | 0.141 µM [rising, full curve, poor fit]
COc1ccc(CNC(=O)Nc2cccc(C(F)(F)F)c2)cc1OC | – | 11.2 µM [rising, partial curve]
O=C(Nc1cccc(OCc2cc(=O)n3ccccc3n2)c1)c1ccccc1Br | 8.91 µM [falling, partial curve, poor fit] | –
